Where “and” joins values, the source holds several entries; their conditions need not be identical. Equal entries are not always repeated. About 310 (0.13%) of roughly 230,000 compounds were called active. Inconclusive results, whose numbers are uncertain, are shown with a selection of clear calls. The call rests on the fitted dose curve; in most records, active means well fitted activation curve with a large enough effect; inconclusive means small, poorly fitted or top-dose-only effect; inactive means no such curve, though single readings can be large or run the other way. Where the call is inconclusive, the potency comes from a doubtful curve fit.
Assay: qHTS Multiplex Assay to Identify Dual Action Probes in a Cell Model of Huntington: Cytoprotection (ATP); further: nearly all actives have a fitted effect of over 45% in size;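 on cytoprotection (ATP increase): toxic huntingtin expression switched on by the ecdysone agonist tebufenozide; % of control where 0% means no effect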
Settings: PC12 HTT-Q103 induced, ATP luminescence, 40 h; cytoprotection (ATP increase): at 56.4 µM (top of the series) unless noted
Procedure, shortened: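 Quantitative HTS on tebufenozide-induced (100 nM) PC12 cells expressing HTTQ103 exon 1–GFP; compounds tested as a concentration series; survival measured via cellular ATP.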
Potency means the concentration at half of the fitted maximal effect.

Structure (SMILES)	cytoprotection (ATP increase)	Potency
COc1ccccc1C1C(C(=O)c2cc3ccccc3o2)=C(O)C(=O)N1CCN1CCOCC1 (stereo not given)	inactive: 0.121% [at 0.074 µM]	–
O=C1C(c2ccccc2)SC(=Nc2ccccc2)N1S(=O)(=O)c1ccccc1 (stereo not given)	–	inactive
CCCN(CCO)CCCc1ccccc1	–	inactive
COc1ccc(CN=C2NN=C(c3ccccc3)CS2)cc1	–	inactive
COC(=O)C/C=C\[C@@H](C)[C@@H](/C=N\O[C@@H](C)c1cn([C@H]2COC[C@H]2O)nn1)OC	–	inconclusive: 0.0009 µM [activator, full curve, poor fit]
O=C(NNC(=O)c1ccccc1-n1cccc1)c1ccc(F)cc1	–	inconclusive: 17.8 µM [activator, single point]
Cc1cccc(-c2nsc(SCC(=O)NCc3ccco3)n2)c1	–	inactive
COC(=O)CN(c1ccc(OC)cc1OC)S(=O)(=O)c1ccccc1[N+](=O)[O-]	–	inconclusive: 2.82 µM [activator, single point]
Cc1cc(NC(=O)CN2C(=O)/C(=C/c3cccc(Br)c3)SC2=S)no1	–	inconclusive: 0.447 µM [activator, full curve, poor fit]
O=C(Nc1ccccc1N1CCOCC1)c1cccs1	–	inconclusive: 0.398 µM [activator, partial curve]
Cc1cccc(OCc2nc(C)cc(=O)[nH]2)c1	–	inconclusive: 6.31 µM [activator, partial curve, poor fit]
CC(C)(C)c1ccc(CSc2nnc(-c3ccccn3)n2Cc2ccco2)cc1	–	inactive
Nc1ccc(S(=O)(=O)N2CCCC2C(=O)O)cc1 (stereo not given)	inactive: 0.2% [at 10 µM]	–
COc1ccc(CCNc2ccc(S(=O)(=O)N3CCCC3)cc2[N+](=O)[O-])cc1	inactive: 0.674% [at 10 µM]	–
COC(=O)c1c(OC)cc2c(c1C)Oc1c(Cl)c(O)c(Cl)c(C)c1C(=O)O2	–	inconclusive: 3.55 µM [activator, single point]
Cc1cc(Cl)ccc1OCCCC(=O)NCc1ccccn1	–	inconclusive: 0.501 µM [activator, single point]
CC(C)OCCCNC(=S)NNC(=O)C(c1ccccc1)c1ccccc1	–	inconclusive: 0.891 µM [activator, single point]
Cc1ccc2c(Cl)cc(Cl)c(OCC(=O)NCc3ccco3)c2n1	–	inconclusive: 0.631 µM [activator, single point]
CC(C)(C)C(=O)NC(=S)Nc1sc2c(c1C#N)CCCCC2	inactive: -3.47% [at 10 µM]	–
CCCCc1nc2sc3c(=O)n(N)cnc3c2c2c1CCC2	–	inconclusive: 5.62 µM [activator, single point]
CC(O)CNC12CC3CC(CC(C3)C1)C2 (stereo not given)	–	inactive
CCN(CC)c1ccc(C=C2C(=O)OC3(CCCC3)OC2=O)cc1	–	inconclusive: 1.26 µM [activator, single point]
Cc1cc(Br)c2nc3c(c(C(=O)O)c2c1)CCCCC3	–	inconclusive: 0.891 µM [activator, single point]
CCOc1cc(C=O)ccc1OS(=O)(=O)c1ccc(NC(C)=O)cc1	–	inconclusive: 2.51 µM [activator, single point]

Rewritten with each value named: part of the list above.
Cc1cccc(-c2nsc(SCC(=O)NCc3ccco3)n2)c1
  Potency: inactive
COC(=O)CN(c1ccc(OC)cc1OC)S(=O)(=O)c1ccccc1[N+](=O)[O-]
  Potency: inconclusive: 2.82 µM [activator, single point]
Cc1cc(NC(=O)CN2C(=O)/C(=C/c3cccc(Br)c3)SC2=S)no1
  Potency: inconclusive: 0.447 µM [activator, full curve, poor fit]

Single records (already shown):
COC(=O)CN(c1ccc(OC)cc1OC)S(=O)(=O)c1ccccc1[N+](=O)[O-] is listed as Potency: inconclusive: 2.82 µM [activator, single point]
COC(=O)c1c(OC)cc2c(c1C)Oc1c(Cl)c(O)c(Cl)c(C)c1C(=O)O2 is listed as Potency: inconclusive: 3.55 µM [activator, single point]

Following part:

Structure (SMILES)	cytoprotection (ATP increase)	Potency
CCCC12CN3CCN(CC(C3)/C1=N\NC(=O)c1ccc(C(C)(C)C)cc1)C2	inactive: 6.59% [at 10 µM]	–
COc1ccc(OC)c(NC(=O)NCCc2cccc(Cl)c2)c1	–	inconclusive: 0.708 µM [activator, single point]
CN1C(C(=O)Nc2ccccn2)C(=O)c2sc(Cl)cc2S1(=O)=O (stereo not given)	–	inconclusive: 3.55 µM [activator, single point]
COc1ccc(C(=O)CCC(=O)Nc2cccnc2)cc1	–	inactive
COCCn1c(SCCN2CCOCC2)nc2c1c(=O)[nH]c(=O)n2C	–	inconclusive: 5.62 µM [activator, partial curve]
CCOC(=O)N1CCN(Cc2c(F)cccc2F)CC1	–	inactive
O=C(Cc1ccccc1[N+](=O)[O-])N1CCN(c2ccccc2F)CC1	inactive: 30.2% [at 10 µM]	–
CC1(c2ccccc2)NC(=O)N(N)C1=O (stereo not given)	–	inconclusive: 35.5 µM [activator, single point]
CN(C)c1ccc(-n2cccc2)cc1	–	inconclusive: 1.26 µM [activator, single point]
CCCCC[C@H](O)/C=C/[C@H]1C(=O)C=C[C@@H]1C/C=C\CCCC(=O)O	–	active: 5.62 µM and inconclusive: 35.5 µM [activator, single point]
CCOCCCn1c(SC(C(=O)Nc2cc(C)ccc2C)c2ccccc2)nnc1-c1ccc(Cl)cc1 (stereo not given)	–	inconclusive: 0.891 µM [activator, single point]
O=C(c1ccccc1Cl)N1CCCC(c2nc3c(nnn3Cc3ccccc3)c(=O)[nH]2)C1 (stereo not given)	inactive: -14.3% [at 10 µM]	–
Cc1ccc(Cn2nnc3c(=O)n(Cc4cccc(C)c4)cnc32)cc1	inactive: 17.3% [at 10 µM]	–
CCNc1ncc2nc(-c3ccc(F)cc3)c(=O)n(CCC#N)c2n1	–	inactive
O=C(C[n+]1ccccc1)N1c2ccccc2Sc2ccccc21	inactive: 0% [at 10 µM]	–
C[C@]12CCC(=O)C=C1[C@@H]1C[C@H]1[C@H]1[C@@H]3[C@@H]4C[C@H]4[C@@]4(CCC(=O)O4)[C@@]3(C)CC[C@@H]12	–	inconclusive: 3.16 µM [activator, single point]
COCCNC(=O)c1cccc(Nc2nc(-c3ccccc3)c3cc(Cl)ccc3n2)c1	–	inconclusive: 1.26 µM [activator, single point]
Cc1nc2scc(-c3ccc(Cl)cc3)c2c(=O)n1N	–	inactive
O=C(NCc1cccnc1)C1CC(=O)N(C2CCCCC2)C1 (stereo not given)	–	inconclusive: 0.708 µM [activator, single point]
C=CCOC(=O)C(C(C)=O)C(NC(=O)OC)c1cccs1 (stereo not given)	–	inconclusive: 0.158 µM [activator, single point]
CCOC(=O)N1CC=C2C(C#N)=C(N)C(C#N)(C#N)[C@H](c3ccccc3OCC)[C@H]2C1	–	inactive
COc1ccc(C(=O)NN2CC(O)=C(c3nc4ccccc4n3C)C2=N)cc1OC	–	inconclusive: 0.891 µM [activator, single point]
Cc1cccc(NC(=O)c2ccc([N+](=O)[O-])o2)c1C	–	inconclusive: 6.31 µM [activator, single point]
O=C1c2ccccc2-c2c1cccc2C(=O)N1CCN(C(=O)c2ccco2)CC1	–	inactive

Structure (SMILES)	cytoprotection (ATP increase)	Potency
CC1=Nc2ccccc2/C1=C\c1nc(-c2ccccc2)oc1O	–	inconclusive: 5.62 µM [activator, single point]
O=C(CCCN1C(=O)/C(=C\c2cccc(Br)c2)SC1=S)Nc1cccnc1	–	inconclusive: 7.08 µM [activator, full curve, poor fit]
COc1cc(NS(=O)(=O)c2ccc(NC(C)=O)cc2)nc(OC)n1	–	inactive
Cc1cccc(N2CCC(N3CCN(C4CCCCC4)C(CCO)C3)CC2)c1C (stereo not given)	–	inconclusive: 2.82 µM [activator, single point]
CC1CCC2(CC1)NC(=O)N(Cc1nnc(-c3cccs3)o1)C2=O (stereo not given)	–	inconclusive: 0.0056 µM [activator, full curve, poor fit]
CCOc1ccc(Oc2c(/C=N/NC(N)=O)c(C)nn2-c2ccccc2)cc1	–	inconclusive: 3.98 µM [activator, single point]
Cc1ccc(OCC(=O)Nc2ccc3c(c2)OCCO3)cc1C	–	inconclusive: 0.447 µM [activator, single point]
COc1ccc(C2=Nc3cc(C)ccc3OC2)cc1	–	inconclusive: 0.562 µM [activator, single point]
CC(=O)NNC(=O)CN1C(=O)/C(=C/c2ccccc2)SC1=S	–	inconclusive: 0.891 µM [activator, single point]
COc1cccc(/C=N/NC(=O)CN2CC(c3ccccc3)CC2=O)c1OC (stereo not given)	–	inconclusive: 2 µM [activator, partial curve]
N#CC1=C2N=C(N)c3ccccc3N2C2=C(C(=O)CCC2)C1c1ccc(F)cc1 (stereo not given)	inactive: 15.5% [at 10 µM]	–
CCN(CC)S(=O)(=O)c1ccc(/C=C/C(=O)O)cc1	–	inconclusive: 0.398 µM [activator, partial curve]
Fc1ccc(COc2ccccc2CNCc2ccncc2)cc1	inactive: 3.07% [at 10 µM]	–
COCCn1c(SCC(=O)c2c(N)n(C)c(=O)n(C)c2=O)nc2ccccc21	–	inconclusive: 3.98 µM [activator, single point]
COc1ccc(OC)c(C2C(C(=O)c3cc4ccccc4o3)=C(O)C(=O)N2c2cc(C)on2)c1 (stereo not given)	–	inconclusive: 35.5 µM [activator, single point]
Cc1csc(=Nc2cccnc2)n1Cc1ccco1	–	inconclusive: 0.1 µM [activator, partial curve, poor fit]
O=C(CNC(=O)c1cccs1)N/N=C/c1ccc(O)cc1O	–	inconclusive: 1.12 µM [activator, full curve, poor fit]
O=C(CSc1nnnn1-c1ccccc1)Nc1ccc(N2CCOCC2)c(Cl)c1	–	inactive
Cc1cccc(/C(N)=N/OC(=O)COc2ccc(Cl)cc2)c1	–	inactive
CC(C(=O)N1CCCc2c1c(=O)oc1ccc(O)cc21)N1CCc2ccccc2C1 (stereo not given)	–	inactive
COc1cc(NC(=S)NCc2cccs2)cc(OC)c1	–	inconclusive: 1.58 µM [activator, single point]
CCO[C@@H]1OC(C(=O)N2CCN(Cc3ccccc3)CC2)=C[C@H](C2CC2)[C@H]1CCCO	inactive: 0.833% [at 10 µM]	–

Reference: PubChem BioAssay AID1471 (National Center for Advancing Translational Sciences (NCATS), 2008)
